Reference: PMC7780724
These are yes or no findings as the source states them, for the method shown. Binding seen in cells or lysates may run through a third protein. Some entries that bind do so weakly or less than the wild type. Where a sequence is shown, tags or fusion partners need not be part of it.

Columns and labels:
Assay in all cases: pull-down; GST or GST-tagged Tpk1, 2 or 3 bound to glutathione sepharose beads, incubated 2 h at 4°C with pre-cleared extracts of nitrogen-starved yeast cells expressing Gap1-HA; binding buffer PBS 1x, 0.05% Triton X-100, 0.1 mM DTT; washed three times with PBS-T; Western blot with HRP-coupled anti-HA antibody; only the target purified
[1] = biological target: T1, GST-tagged Tpk1, catalytic subunit of PKA (S. cerevisiae) (UniProt P06244)
T1 sequence: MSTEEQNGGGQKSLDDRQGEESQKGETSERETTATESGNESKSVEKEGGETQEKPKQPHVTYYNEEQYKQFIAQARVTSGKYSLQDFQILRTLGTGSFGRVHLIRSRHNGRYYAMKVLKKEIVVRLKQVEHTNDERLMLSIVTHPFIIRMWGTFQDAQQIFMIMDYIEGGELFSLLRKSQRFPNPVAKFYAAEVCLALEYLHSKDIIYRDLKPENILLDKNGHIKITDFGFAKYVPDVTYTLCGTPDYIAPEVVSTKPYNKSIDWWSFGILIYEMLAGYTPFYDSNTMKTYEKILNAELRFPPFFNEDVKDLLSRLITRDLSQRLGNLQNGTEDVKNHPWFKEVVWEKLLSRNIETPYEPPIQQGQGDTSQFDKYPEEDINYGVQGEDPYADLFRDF

[2] = biological target: T2, GST-tagged Tpk2, catalytic subunit of PKA (S. cerevisiae) (UniProt P06245)
T2 sequence: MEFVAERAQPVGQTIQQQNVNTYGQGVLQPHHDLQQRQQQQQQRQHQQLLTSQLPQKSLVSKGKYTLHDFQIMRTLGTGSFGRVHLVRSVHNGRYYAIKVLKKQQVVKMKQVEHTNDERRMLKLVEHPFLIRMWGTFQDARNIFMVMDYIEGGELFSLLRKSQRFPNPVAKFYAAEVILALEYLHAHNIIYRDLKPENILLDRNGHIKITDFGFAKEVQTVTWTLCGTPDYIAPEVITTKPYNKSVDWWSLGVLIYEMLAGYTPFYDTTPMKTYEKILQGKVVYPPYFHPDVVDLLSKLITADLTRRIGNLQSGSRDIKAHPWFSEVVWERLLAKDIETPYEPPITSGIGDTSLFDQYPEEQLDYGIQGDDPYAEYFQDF

[3] = biological target: T3, GST-tagged Tpk3, catalytic subunit of PKA (S. cerevisiae) (UniProt P05986)
T3 sequence: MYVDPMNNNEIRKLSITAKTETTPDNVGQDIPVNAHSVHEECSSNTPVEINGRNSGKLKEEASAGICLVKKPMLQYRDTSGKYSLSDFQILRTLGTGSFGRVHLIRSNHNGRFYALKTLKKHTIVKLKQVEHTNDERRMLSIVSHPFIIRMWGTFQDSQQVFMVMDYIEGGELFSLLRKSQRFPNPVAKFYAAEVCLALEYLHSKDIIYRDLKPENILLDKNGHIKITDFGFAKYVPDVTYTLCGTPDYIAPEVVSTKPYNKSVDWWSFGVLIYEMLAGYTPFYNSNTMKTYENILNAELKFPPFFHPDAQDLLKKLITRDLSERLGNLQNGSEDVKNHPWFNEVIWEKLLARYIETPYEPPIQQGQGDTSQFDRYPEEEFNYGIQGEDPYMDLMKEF

binding [1]: binds | binding [2]: binds | binding [3]: binds
B1: HA-tagged Gap1 amino acid transceptor (protein, UniProt P19145 1-602)
chain: MSNTSSYEKNNPDNLKHNGITIDSEFLTQEPITIPSNGSAVSIDETGSGSKWQDFKDSFKRVKPIEVDPNLSEAEKVAIITAQTPLKHHLKNRHLQMIAIGGAIGTGLLVGSGTALRTGGPASLLIGWGSTGTMIYAMVMALGELAVIFPISGGFTTYATRFIDESFGYANNFNYMLQWLVVLPLEIVSASITVNFWGTDPKYRDGFVALFWLAIVIINMFGVKGYGEAEFVFSFIKVITVVGFIILGIILNCGGGPTGGYIGGKYWHDPGAFAGDTPGAKFKGVCSVFVTAAFSFAGSELVGLAASESVEPRKSVPKAAKQVFWRITLFYILSLLMIGLLVPYNDKSLIGASSVDAAASPFVIAIKTHGIKGLPSVVNVVILIAVLSVGNSAIYACSRTMVALAEQRFLPEIFSYVDRKGRPLVGIAVTSAFGLIAFVAASKKEGEVFNWLLALSGLSSLFTWGGICICHIRFRKALAAQGRGLDELSFKSPTGVWGSYWGLFMVIIMFIAQFYVAVFPVGDSPSAEGFFEAYLSFPLVMVMYIGHKIYKRNWKLFIPAEKMDIDTGRREVDLDLLKQEIAEEKAIMATKPRWYRIWNFWC
